For at least one compound, name, drawing or mass did not settle the structure.
System: permanent LAD ligation mouse model of MI

SMILES: CC(=O)Nc1cccc(-n2c(=O)n(C3CC3)c(=O)c3c(Nc4ccc(I)cc4F)n(C)c(=O)c(C)c32)c1 [trametinib, reference compound]
- cardiac function (LVEF, LVEDV by echocardiography) (trametinib 1 mg/kg/d oral gavage, started 1 day after MI and continued for 6 days, LAD-ligated mice, day 7): attenuated deterioration of cardiac function
- pJNK/SAK or p38 MAPK pathways (trametinib 1 mg/kg/d oral, infarcted myocardium, western blot): did not significantly interfere
